Measured values as given in paper PMC6899445.
No constants are given. Whether binding was seen depends on the method and setting. Binding seen in cells or lysates may run through a third protein. Binding can be weak; no strength is given. For part of these data: Sequences can lack the tags named with a protein.

By UniProt entry, the sequences of proteins in these tests, tags left out. Residues count along the entry.
UniProt Q62765, residues 46-843: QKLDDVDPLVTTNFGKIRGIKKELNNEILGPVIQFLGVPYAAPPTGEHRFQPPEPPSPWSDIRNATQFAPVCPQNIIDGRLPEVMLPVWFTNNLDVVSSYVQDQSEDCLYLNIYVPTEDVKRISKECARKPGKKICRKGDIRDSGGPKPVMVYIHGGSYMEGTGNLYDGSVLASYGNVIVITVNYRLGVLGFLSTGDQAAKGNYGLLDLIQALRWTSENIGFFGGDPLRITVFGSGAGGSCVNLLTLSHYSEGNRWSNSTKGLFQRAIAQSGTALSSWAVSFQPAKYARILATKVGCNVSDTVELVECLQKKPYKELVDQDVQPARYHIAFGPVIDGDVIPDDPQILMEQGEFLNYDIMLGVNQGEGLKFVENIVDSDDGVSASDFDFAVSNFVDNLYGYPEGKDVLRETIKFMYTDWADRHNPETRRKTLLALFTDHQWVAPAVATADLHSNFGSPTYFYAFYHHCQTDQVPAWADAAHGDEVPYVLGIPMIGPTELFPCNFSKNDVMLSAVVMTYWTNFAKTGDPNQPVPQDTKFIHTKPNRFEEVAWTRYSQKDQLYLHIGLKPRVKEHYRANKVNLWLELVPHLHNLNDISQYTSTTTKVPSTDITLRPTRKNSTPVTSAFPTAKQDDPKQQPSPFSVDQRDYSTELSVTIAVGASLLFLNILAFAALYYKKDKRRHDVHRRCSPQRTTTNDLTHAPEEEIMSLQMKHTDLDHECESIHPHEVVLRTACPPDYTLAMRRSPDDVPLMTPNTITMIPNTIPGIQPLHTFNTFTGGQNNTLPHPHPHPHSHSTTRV

How the values were obtained:
[1] = molecular target: GST fused to the large extracellular loop (LEL) of TSPAN5 (human) (UniProt P62079); assay: pull-down; GST fusion proteins on glutathione Sepharose beads incubated 3 h at 4 °C with adult rat hippocampus and cortex lysates in RIPA buffer; blots; only the target purified
[2] = molecular target: GST fused to the C terminus (Ct) of TSPAN5 (human) (UniProt P62079); assay: as above
[3] = molecular target: T1, full-length TSPAN5-GFP, wild-type (human) (UniProt P62079); assay: co-IP; HEK293 cells transfected with TSPAN5-GFP and HA-tagged NLG1 constructs, lysed in RIPA buffer; GFP-Trap magnetic beads 1 h at 4 °C; blots
T1 sequence: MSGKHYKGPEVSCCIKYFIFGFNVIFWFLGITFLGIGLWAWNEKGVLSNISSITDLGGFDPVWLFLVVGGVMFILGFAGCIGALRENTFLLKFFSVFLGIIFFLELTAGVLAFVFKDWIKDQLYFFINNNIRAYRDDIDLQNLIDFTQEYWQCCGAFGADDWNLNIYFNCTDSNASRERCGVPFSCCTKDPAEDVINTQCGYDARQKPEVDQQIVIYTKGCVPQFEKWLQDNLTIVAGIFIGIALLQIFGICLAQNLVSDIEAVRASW

Row | binding [1] | binding [2] | binding [3] | Substance
1 | binds | binds weakly |  | neuroligin-1 (from UniProt Q62765 46-843)
2 |  |  | binds | HA-tagged NLG1 ΔC mutant (domain or fragment)
